Results as given in patent US6521751B1, “Recombinant nucleic acid sequences and methods for determining both genotoxicity and mutagenicity of a sample and the kinetics of the genotoxicity” (Vlaamse Instelling voor Technologisch Onderzoek (VITO), priority 1998, dated 2003).
Where “and” joins values, the source holds several entries; their conditions need not be identical. Equal entries are not always repeated. Where two headings read alike, the source gives them in different places.

How the values were obtained:
[1] = test system: S. typhimurium TA104 containing pMOL890; details: Salmonella typhimurium
[2] = test system: S. typhimurium TA104* containing pMOL890
[3] = test system: S. typhimurium TA104 containing pMOL1069; details: Salmonella typhimurium
[4] = test system: S. typhimurium TA98 containing pMOL1068; details: Salmonella typhimurium
[5] = test system: S. typhimurium TA104 containing pMOL1068; details: Salmonella typhimurium
[6] = test system: S. typhimurium TA98 containing pMOL1067; details: Salmonella typhimurium
[7] = test system: TA 98 and TA104 strains containing pMOL1067 or pMOL1068
[8] = test system: S. typhimurium TA104 containing pMOL1067; details: Salmonella typhimurium
[9] = test system: S. typhimurium TA104 containing pMOL1066; details: Salmonella typhimurium
[10] = test system: S. typhimurium TA98* containing pMOL890; details: for Number of His^+ revertants: Furazolidone, TA98* (pMOL890)
[11] = test system: S. typhimurium TA98 containing pMOL890; details: Salmonella typhimurium
[12] = test system: S. typhimurium TA1535* containing pMOL890; details: for Number of His^+ revertants: Furazolidone, TA1535* (pMOL890)
[13] = test system: S. typhimurium TA100* containing pMOL890
[14] = test system: S. typhimurium; details: cited from earlier work

O=C1OCCN1/N=C/c1ccc([N+](=O)[O-])o1 [Furazolidone]
MINIMAL DETECTED CONCENTRATION (MDC) [1]: 0.00176 nmol/assay
Conclusion (Ames test) [2]: +
MINIMAL DETECTED CONCENTRATION (MDC) [3]: 0.00044 nmol/assay
MINIMAL DETECTED CONCENTRATION (MDC) [4]: 0.00176 nmol/assay
MINIMAL DETECTED CONCENTRATION (MDC) [5]: 0.00022 nmol/assay
MINIMAL DETECTED CONCENTRATION (MDC) [6]: 0.00176 nmol/assay
OUTCOME (genotoxicity, final outcome) [7]: pos
MINIMAL DETECTED CONCENTRATION (MDC) [8]: 0.00022 nmol/assay
MINIMAL DETECTED CONCENTRATION (MDC) [9]: 0.00044 nmol/assay
Conclusion (Ames test) [10]: +
Number of His^+ revertants ([10]; 0.1 mmol): 8
Number of His^+ revertants ([10]; 1 mmol): 20 and 14
Number of His^+ revertants ([10]; 10 mmol): 30
MINIMAL DETECTED CONCENTRATION (MDC) [11]: 0.00176 nmol/assay
Conclusion (Ames test) [12]: +
Number of His^+ revertants ([12]; 0.1 mmol): 22
Number of His^+ revertants ([12]; 1 mmol): 30
Conclusion (Ames test) [13]: +
Number of His^+ revertants ([13]; Furazolidone, 0.1 mmol, TA100* (pMOL890)): 108
AMES (result) [14]: pos
MINIMAL DETECTED CONCENTRATION (MDC) [14]: 0.1 nmol/assay
